Paper PMC12209172, “Poly(ADP-ribose)polymerase 2 is zinc-dependent enzyme and nucleosome reorganizer” (Cellular and Molecular Life Sciences: CMLS, 2025)
Several values for one entry are separate records, joined by “and”; a condition that tells them apart may be missing. Equal values may be shown once. The source gives many values for each of these; only a part stands here.

Sequences of proteins named here, by UniProt entry; tags and fusion partners are left off. Residues count along the entry.
UniProt Q9UGN5, 77-220: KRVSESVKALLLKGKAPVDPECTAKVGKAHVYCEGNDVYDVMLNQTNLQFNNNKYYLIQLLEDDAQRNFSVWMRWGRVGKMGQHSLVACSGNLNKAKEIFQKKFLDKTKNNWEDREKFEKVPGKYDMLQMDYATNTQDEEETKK

Biological target: T1, WGR domain of PARP2 (Homo sapiens, UniProt Q9UGN5)
T1 construct: WGR domain of PARP2 (residues 77–220) into pET-15b-TEV expression vector; 6xHis (pET-15b-TEV) (N, cleaved yes); made in house; host or cells: Escherichia coli Rosetta2 (DE3) pLysS
Assay: Tryptophan fluorescence spectroscopy of the WGR domain titrated with divalent cations (one site binding fit)
Details: listed as Zn
Experimental: Fluorescence spectra of Trp residues were measured in the 300–450 nm spectral range at the 270 nm excitation wavelengths using the Cary Eclipse spectrofluorometer (Varian/Agilent, USA).
Fluorescence of WGR domain was measured at 0.5 or 5 µM in a buffer containing 10 mM HEPES (pH 8.0), 150 mM NaCl and 0.73 or 7.3 µM EDTA, respectively. Solutions were complemented with ZnCl2 (0.2–308 µM) or MgCl2 (15–5000 µM), or CaCl2 (8–5000 µM) dissolved in a buffer containing 10 mM HEPES (pH 8.0), 150 mM NaCl. Intensity of the measured spectra was corrected for the concomitant dilution of the WGR domain. Integral intensities (Ifl.) of fluorescence spectra were averaged over three independent measurements (mean ± SEM) and used to plot the corresponding Ifl. vs. ion concentration graphs. Data were fitted with the one site binding equation:2 [drawing 2]
Where C is the concentration of divalent cations, Kd is a dissociation constant of the complex, Im and Ifl0 are maximal and initial values of Ifl., respectively.

fluorescence intensity (Fig 3d) (wavelength 354.000, 5.9 uM Zn): 67.285 and 76.342 and 93.665 and 74.817
fluorescence intensity (Fig 3d) (wavelength 354.000, 303 uM + 7 mM EDTA): 44.501 and 55.593 and 44.456 and 53.696
fluorescence intensity (Fig 3d) (wavelength 355.070, 5.9 uM Zn): 65.935 and 74.680 and 92.139 and 72.754
fluorescence intensity (Fig 3d) (wavelength 355.070, 303 uM + 7 mM EDTA): 42.180 and 55.172 and 43.393 and 52.995
fluorescence intensity (Fig 3d) (wavelength 356.000, 5.9 uM Zn): 64.907 and 74.547 and 90.639 and 72.667
fluorescence intensity (Fig 3d) (wavelength 356.000, 303 uM + 7 mM EDTA): 42.285 and 53.604 and 43.025 and 52.086
fluorescence intensity (Fig 3d) (wavelength 357.070, 5.9 uM Zn): 64.114 and 72.196 and 88.731 and 69.739
fluorescence intensity (Fig 3d) (wavelength 357.070, 303 uM + 7 mM EDTA): 41.716 and 52.477 and 42.546 and 51.546
fluorescence intensity (Fig 3d) (wavelength 358.000, 5.9 uM Zn): 63.157 and 72.021 and 88.099 and 69.266
fluorescence intensity (Fig 3d) (wavelength 358.000, 303 uM + 7 mM EDTA): 40.855 and 51.601 and 41.681 and 50.945
fluorescence intensity (Fig 3d) (wavelength 359.070, 5.9 uM Zn): 62.278 and 70.830 and 86.329 and 68.361
fluorescence intensity (Fig 3d) (wavelength 359.070, 303 uM + 7 mM EDTA): 40.858 and 51.293 and 41.485 and 49.674
fluorescence intensity (Fig 3d) (wavelength 360.000, 5.9 uM Zn): 61.254 and 69.823 and 84.544 and 66.502
fluorescence intensity (Fig 3d) (wavelength 360.000, 303 uM + 7 mM EDTA): 39.669 and 50.425 and 40.528 and 48.947
fluorescence intensity (Fig 3d) (wavelength 361.070, 5.9 uM Zn): 59.131 and 68.253 and 82.430 and 64.951
fluorescence intensity (Fig 3d) (wavelength 361.070, 303 uM + 7 mM EDTA): 38.187 and 49.332 and 39.428 and 48.013
fluorescence intensity (Fig 3d) (wavelength 362.000, 5.9 uM Zn): 58.264 and 66.735 and 80.884 and 63.696
fluorescence intensity (Fig 3d) (wavelength 362.000, 303 uM + 7 mM EDTA): 38.449 and 48.285 and 37.988 and 47.341
fluorescence intensity (Fig 3d) (wavelength 363.070, 5.9 uM Zn): 57.594 and 64.746 and 79.909 and 62.129
fluorescence intensity (Fig 3d) (wavelength 363.070, 11.6 uM Zn): 108.644 and 94.057 and 94.934 and 99.988
fluorescence intensity (Fig 3d) (wavelength 363.070, 303 uM + 7 mM EDTA): 36.953 and 47.216 and 38.073 and 46.071
Structure (SMILES): [Cl-].[Cl-].[Zn+2] [Zn2+, ZnCl2]
fluorescence intensity (Fig 3d) (wavelength 354.000, 11.6 uM Zn): 128.158 and 111.185 and 111.648 and 117.492
fluorescence intensity (Fig 3d) (wavelength 354.000, 17.2 uM): 133.640 and 124.345 and 123.362 and 123.223
fluorescence intensity (Fig 3d) (wavelength 354.000, 22.1 uM): 136.574 and 123.971 and 125.419 and 125.826
fluorescence intensity (Fig 3d) (wavelength 354.000, 308 uM): 135.412 and 130.314 and 129.599 and 123.811
fluorescence intensity (Fig 3d) (wavelength 355.070, 11.6 uM Zn): 124.647 and 109.093 and 108.771 and 115.370
fluorescence intensity (Fig 3d) (wavelength 355.070, 17.2 uM): 134.100 and 122.448 and 122.181 and 121.920
fluorescence intensity (Fig 3d) (wavelength 355.070, 22.1 uM): 133.788 and 122.906 and 122.440 and 122.888
fluorescence intensity (Fig 3d) (wavelength 355.070, 308 uM): 132.870 and 126.269 and 126.212 and 122.072
fluorescence intensity (Fig 3d) (wavelength 356.000, 11.6 uM Zn): 122.988 and 108.229 and 108.188 and 114.548
fluorescence intensity (Fig 3d) (wavelength 356.000, 17.2 uM): 131.057 and 121.289 and 121.206 and 119.668
fluorescence intensity (Fig 3d) (wavelength 356.000, 22.1 uM): 132.012 and 119.749 and 121.562 and 123.282
fluorescence intensity (Fig 3d) (wavelength 356.000, 308 uM): 129.933 and 126.006 and 124.687 and 122.196
fluorescence intensity (Fig 3d) (wavelength 357.070, 11.6 uM Zn): 123.122 and 106.392 and 106.096 and 113.312
fluorescence intensity (Fig 3d) (wavelength 357.070, 17.2 uM): 130.148 and 119.457 and 119.526 and 117.712
fluorescence intensity (Fig 3d) (wavelength 357.070, 22.1 uM): 131.312 and 119.419 and 120.483 and 119.148
fluorescence intensity (Fig 3d) (wavelength 357.070, 308 uM): 128.314 and 123.632 and 122.132 and 121.183
fluorescence intensity (Fig 3d) (wavelength 358.000, 11.6 uM Zn): 120.165 and 104.067 and 105.092 and 110.586
fluorescence intensity (Fig 3d) (wavelength 358.000, 17.2 uM): 127.935 and 116.823 and 116.491 and 115.456
fluorescence intensity (Fig 3d) (wavelength 358.000, 22.1 uM): 129.697 and 118.502 and 117.563 and 117.664
fluorescence intensity (Fig 3d) (wavelength 358.000, 308 uM): 126.335 and 120.305 and 121.465 and 117.345
fluorescence intensity (Fig 3d) (wavelength 359.070, 11.6 uM Zn): 119.231 and 104.405 and 103.692 and 108.979
fluorescence intensity (Fig 3d) (wavelength 359.070, 17.2 uM): 125.377 and 116.003 and 114.866 and 114.647
fluorescence intensity (Fig 3d) (wavelength 359.070, 22.1 uM): 125.510 and 115.026 and 117.050 and 116.523
fluorescence intensity (Fig 3d) (wavelength 359.070, 308 uM): 124.778 and 116.949 and 118.426 and 115.904
fluorescence intensity (Fig 3d) (wavelength 360.000, 11.6 uM Zn): 117.057 and 100.255 and 101.019 and 105.573
fluorescence intensity (Fig 3d) (wavelength 360.000, 17.2 uM): 123.352 and 114.211 and 114.005 and 112.097
fluorescence intensity (Fig 3d) (wavelength 360.000, 22.1 uM): 123.035 and 111.852 and 114.429 and 112.753
fluorescence intensity (Fig 3d) (wavelength 360.000, 308 uM): 121.609 and 115.733 and 116.350 and 113.134
fluorescence intensity (Fig 3d) (wavelength 361.070, 11.6 uM Zn): 114.046 and 98.566 and 99.036 and 105.396
fluorescence intensity (Fig 3d) (wavelength 361.070, 17.2 uM): 120.461 and 110.090 and 110.969 and 109.973
fluorescence intensity (Fig 3d) (wavelength 361.070, 22.1 uM): 121.524 and 109.505 and 110.838 and 110.734
fluorescence intensity (Fig 3d) (wavelength 361.070, 308 uM): 118.289 and 112.479 and 113.917 and 110.987
fluorescence intensity (Fig 3d) (wavelength 362.000, 11.6 uM Zn): 112.097 and 97.087 and 96.457 and 101.954
fluorescence intensity (Fig 3d) (wavelength 362.000, 17.2 uM): 117.941 and 108.915 and 110.053 and 108.113
fluorescence intensity (Fig 3d) (wavelength 362.000, 22.1 uM): 118.341 and 109.078 and 108.775 and 108.785
fluorescence intensity (Fig 3d) (wavelength 362.000, 308 uM): 117.095 and 112.475 and 111.657 and 109.754
fluorescence intensity (Fig 3d) (wavelength 363.070, 17.2 uM): 116.250 and 107.112 and 107.532 and 105.901
fluorescence intensity (Fig 3d) (wavelength 363.070, 22.1 uM): 117.573 and 106.408 and 107.151 and 106.670
fluorescence intensity (Fig 3d) (wavelength 363.070, 308 uM): 112.775 and 108.426 and 109.036 and 107.052
